Laboratory results: article doi:10.1101/2022.11.10.515925 (bioRxiv, 2022)

Biological target: β-tubulin (in the porcine brain microtubule) (porcine)
Test: cryo-EM structure

B1: KIF20A 1-565 (full-length motor domain, monomeric construct) (domain or fragment, UniProt P97329 1-565)
chain: MSHRILSPPAGLLSDEDVVDSPILESTAADLRSVVRKDLLSDCSVISASLEDKQALLEDTSEKVKVYLRIRPFLTSELDRQEDQGCVCIENTETLVLQAPKDSFALKSNERGVGQATHKFTFSQIFGPEVGQVAFFNLTMKEMVKDVLKGQNWLIYTYGVTNSGKTYTIQGTSKDAGILPQSLALIFNSLQGQLHPTPDLKPLLSNEVIWLDSKQIRQEEMKKLSLLIGGLQEEELSTSVKKRVHTESRIGASNSFDSGVAGLSSTSQFTSSSQLDETSQLWAQPDTVPVSVPADIRFSVWISFFEIYNELLYDLLEPPSHQHKRQTLRLCEDQNGNPYVKDLNWIHVRDVEEAWKLLKVGRKNQSFASTHMNQQSSRSHSIFSIRILHLQGEGDIVPKISELSLCDLAGSERCKHQKSGERLKEAGNINTSLHTLGRCIAALRQNQQNRSKQNLIPFRDSKLTRVFQGFFTGRGRSCMIVNVNPCASTYDETLHAAKFSALASQLVHAPPVHLGIPSLHSFIKKHSPQVGPGLEKEDKADSDLEDSPEDEADVSVYGKEELLQV
In the case of B1, the binding is reported as “binds”.

These are yes or no findings as the source states them, for the method shown. A result given as binding can be weak or reduced; the word gives no strength.
